# Measurements taken from PMC8740220.
# Amino acid sequences for entries named in this document (tags omitted).
# UniProt P35222: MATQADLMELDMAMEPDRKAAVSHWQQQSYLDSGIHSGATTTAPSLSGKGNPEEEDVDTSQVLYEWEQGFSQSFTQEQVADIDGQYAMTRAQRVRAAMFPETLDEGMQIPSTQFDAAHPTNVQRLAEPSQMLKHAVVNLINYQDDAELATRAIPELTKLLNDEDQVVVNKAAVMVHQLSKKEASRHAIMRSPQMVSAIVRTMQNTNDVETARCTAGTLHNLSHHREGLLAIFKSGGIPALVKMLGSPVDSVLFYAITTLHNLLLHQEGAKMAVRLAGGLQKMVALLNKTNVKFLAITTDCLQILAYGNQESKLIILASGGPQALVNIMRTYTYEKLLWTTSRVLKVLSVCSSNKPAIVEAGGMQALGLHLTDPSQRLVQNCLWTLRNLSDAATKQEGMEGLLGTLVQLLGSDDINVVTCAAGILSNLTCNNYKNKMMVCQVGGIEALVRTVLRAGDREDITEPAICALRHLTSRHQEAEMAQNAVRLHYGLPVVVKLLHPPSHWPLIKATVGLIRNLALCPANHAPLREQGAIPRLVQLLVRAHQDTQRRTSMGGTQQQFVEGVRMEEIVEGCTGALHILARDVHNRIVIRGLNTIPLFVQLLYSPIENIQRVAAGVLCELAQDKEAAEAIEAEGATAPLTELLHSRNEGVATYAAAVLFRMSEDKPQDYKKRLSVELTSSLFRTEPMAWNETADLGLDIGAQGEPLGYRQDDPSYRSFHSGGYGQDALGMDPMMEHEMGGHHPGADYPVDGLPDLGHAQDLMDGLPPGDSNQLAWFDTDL
# No constants are given. Whether binding was seen depends on the method and setting. Binding seen in cells or lysates may run through a third protein. Some entries that bind do so weakly or less than the wild type. For some assays here: Where a sequence is shown, tags or fusion partners need not be part of it.
# T1: HA-NRIP2 (UniProt Q9BQI9)
# T1 sequence: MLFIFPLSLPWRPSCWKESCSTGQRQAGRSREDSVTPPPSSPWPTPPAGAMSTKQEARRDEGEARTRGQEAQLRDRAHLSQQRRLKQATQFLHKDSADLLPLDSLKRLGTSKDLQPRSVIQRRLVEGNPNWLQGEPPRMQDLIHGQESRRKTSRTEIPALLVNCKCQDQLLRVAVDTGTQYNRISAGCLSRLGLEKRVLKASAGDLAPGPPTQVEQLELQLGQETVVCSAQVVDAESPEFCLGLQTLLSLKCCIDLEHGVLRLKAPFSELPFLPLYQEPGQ
# Columns and labels:
# HA-NRIP2 = target: T1, HA-NRIP2; assay: co-IP; podocytes co-transfected with Myc-β-catenin (full length or deletion mutants) and HA-NRIP2, lysed after 24 h; IP with HA beads, immunoblot with anti-Myc and anti-HA
# [1] = target: β-catenin (endogenous) (human (endogenous in the human podocyte cell line)) (UniProt P35222); assay: co-IP; whole-cell extracts of cultured human podocytes; β-catenin antibody overnight at 4°C, protein A/G magnetic beads, washes with cold PBS; immunoblot for NRIP2; cells transfected with NRIP2 siRNA as negative control
molecule,measurement,setting,value
Myc-tagged β-catenin full length (from UniProt P35222 1-781),binding,HA-NRIP2,binds
"Nuclear receptor interacting protein 2 (endogenous) (protein, UniProt Q9BQI9 1-281) MLFIFPLSLPWRPSCWKESCSTGQRQAGRSREDSVTPPPSSPWPTPPAGAMSTKQEARRDEGEARTRGQEAQLRDRAHLSQQRRLKQATQFLHKDSADLLPLDSLKRLGTSKDLQPRSVIQRRLVEGNPNWLQGEPPRMQDLIHGQESRRKTSRTEIPALLVNCKCQDQLLRVAVDTGTQYNRISAGCLSRLGLEKRVLKASAGDLAPGPPTQVEQLELQLGQETVVCSAQVVDAESPEFCLGLQTLLSLKCCIDLEHGVLRLKAPFSELPFLPLYQEPGQ",binding,[1],binds
